Data as given in PubChem BioAssay AID720505 (Drosophila RNAi Screening Center, 2013).
Assay: 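Knock-downs that reduce calcium influx once internal stores are emptied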 (primary screen). System: Drosophila S2R+ cells. Reagent: long dsRNA against Drosophila genes. Treatment: thapsigargin (2 µM) in calcium-free buffer to empty internal stores, then 2 mM calcium added back. Measured: 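Stores emptied by 2 µM thapsigargin without calcium, then 2 mM calcium re-added; fluo-4 fluorescence followed by FLIPR in 384-well plates, per-well averaged endpoint, raw; two screen passes, some wells retested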. Reading the numbers: calcium signal and retest calcium signal: higher = more calcium entry after store depletion. Rule for the call: 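About 1500 genes called as lowering calcium entry, by varying amounts, judged against per-plate control wells with STIM1 as positive and Rho1 as negative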. Meaning of the calls: active = called as lowering calcium entry; inactive = not called.
The deposit covers about 20,000 reagents; shown is a random part of those that have a named target and a result. In the full data, about 2,100 (10%) got an active call. 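Raw plate signals without normalisation; calls rest on control-based scores that were not deposited; replicate 2 separates called from uncalled poorly.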 Entries without a mark were called inactive. A plus sign joins genes that one reagent is predicted to hit. The record does not give: the amount of reagent, the time to read-out.

| gene | PubChem SID | calcium signal, replicate 1 | calcium signal, replicate 2 | retest calcium signal, replicate 1 | retest calcium signal, replicate 2 |
| --- | --- | --- | --- | --- | --- |
| kibra | SID104194325 | 135 | 160 | – | – |
| kibra | SID104196049 | 140 | 157 | – | – |
| kibra | SID104202640 | 103 | 110 | – | – |
| olf413 | SID104191471 | 77.9 | 177 | 7403 | 116 |
| olf413 | SID104191513 | 91 | 104 | – | – |
| olf413 | SID104191625 | 106 | 139 | 93 | 92.2 |
| CG12194 | SID104180137 | 173 | 117 | – | – |
| Dhfr | SID104196438 | 124 | 143 | – | – |
| bw | SID104183797 | 83.6 | 80.8 | – | – |
| bw | SID104184469 | 156 | 86 | – | – |
| CG13926 | SID104188187 | 97.3 | 150 | – | – |
| CG42686 (retired record) | SID104195039 | 91.8 (active) | 75.4 | – | – |
| CG42686 (retired record) | SID104195040 | 156 | 100 | – | – |
| CG42686 (retired record) | SID104202352 | 97.6 | 144 | – | – |
| Rae1 | SID104184369 | 89.7 | 95.7 | – | – |
| tsu | SID104187057 | 148 | 138 | – | – |
| Galphai | SID104190960 | 122 | 96.4 | – | – |
| Myc | SID104198554 | 95.7 | 77.5 | – | – |
| CG30043 | SID104186077 | 155 | 217 | – | – |
| CG4452 | SID104190214 | 83.9 | 123 | – | – |
| CG7810 | SID104182864 | 141 | 227 | – | – |
| Argk2 | SID104190275 | 93.7 | 85.9 | – | – |
| Argk2 | SID104202706 | 101 | 145 | – | – |
| CG42238 | SID104182972 | 105 | 132 | – | – |
| 14-3-3zeta | SID104184820 | 160 | 175 | – | – |
| His3.3B | SID104197565 | 73.2 | 83.5 | – | – |
| His3.3B | SID104198465 | 49.9 | 93.9 | – | – |
| EMC3 | SID104182781 | 112 | 98.8 | – | – |
| CG9265 | SID104182970 | 72.3 | 143 | – | – |
| CG9265 | SID104182971 | 176 | 84.3 | – | – |
| raskol | SID104198994 | 81.6 | 116 | – | – |
| raskol | SID104199523 | 89.6 | 122 | – | – |
| raskol | SID104199756 | 98.3 | 94.9 | – | – |
| raskol | SID104199759 | 65.1 (active) | 70.4 | – | – |
| raskol | SID104201449 | 178 | 98.4 | – | – |
| zfh2 | SID104196970 | 109 | 187 | – | – |
| Pdk1 | SID104188474 | 84.7 | 118 | – | – |
| CG13367 | SID104198277 | 105 | 115 | – | – |
| CG13367 | SID104198278 | 65.8 (active) | 95.4 | – | – |
| Reph | SID104180426 | 104 | 190 | – | – |
| Reph | SID104201615 | 154 | 280 | – | – |
| dpr11 | SID104192353 | 149 | 114 | – | – |
| dpr11 | SID104192354 | 109 | 119 | – | – |
| dpr11 | SID104192355 | 109 | 114 | – | – |
| CG32640 + CG32641 | SID104202244 | 135 | 188 | – | – |
| ImpE3 | SID104196508 | 106 | 166 | – | – |
| Sumo | SID104183403 | 116 | 207 | – | – |
| CG13409 | SID104194377 | 132 | 157 | – | – |
| Ubc84D | SID104192402 | 121 | 143 | – | – |
| Orc2 | SID104196568 | 85.9 | 113 | – | – |
| Asph | SID104186575 | 122 | 128 | – | – |
| Asph | SID104186963 | 176 | 123 | – | – |
| CG43347 | SID104197774 | 79.6 | 128 | – | – |
| CG43347 | SID104198238 | 46.9 (active) | 82.6 | 123 | 4322 |
| CG43347 | SID104202056 | 77.2 | 170 | – | – |
| CG43347 | SID104202074 | 97.9 | 170 | – | – |
| CG43347 | SID104202364 | 128 | 154 | – | – |
| CG43347 | SID104202527 | 105 | 90.9 | – | – |
| CG43736 | SID104198162 | 298 | 147 | – | – |
| CG43736 | SID104198163 | 236 | 120 | – | – |
| phyl | SID104187455 | 107 | 117 | – | – |
| Cp110 | SID104200422 | 177 | 120 | – | – |
| Cp110 | SID104201390 | 136 | 109 | – | – |
| Xpd | SID104184458 | 152 | 78.8 | – | – |
| Pdk | SID104187296 | 148 | 114 | – | – |
| CG15025 | SID104194823 | 143 | 139 | – | – |
| CG15082 | SID104186305 | 137 | 96.9 | – | – |
| CG15812 | SID104188271 | 46.9 (active) | 87.2 | – | – |
| CG34309 | SID104194630 | 121 | 196 | – | – |
| CG34040 | SID104183694 | 87.4 | 6642 | – | – |
| CG13226 | SID104186138 | 121 | 139 | – | – |
| CG14131 | SID104189927 | 37.9 | 74.2 | – | – |
| Arl2 | SID104193909 | 141 | 108 | – | – |
| Arpc2 | SID104181905 | 92 | 82.8 | – | – |
| Prx1 | SID104190533 | 85.9 | 141 | – | – |
| CG10435 | SID104194038 | 112 | 144 | – | – |
| RpL29 | SID104184442 | 113 | 91.5 | – | – |
| Snmp1 | SID104195960 | 174 | 188 | – | – |
| CG13299 | SID104189765 | 117 | 92.1 | – | – |
| Acsf2 | SID104181964 | 65.8 (active) | 172 | – | – |
| CG14096 | SID104189891 | 86.3 | 152 | 123 | 89.6 |
| CG4393 | SID104195365 | 238 | 132 | – | – |
| NitFhit | SID104188472 | 91.6 | 154 | – | – |
| CG3285 | SID104180381 | 119 | 222 | – | – |
| Frmd5 | SID104182594 | 125 | 194 | – | – |
| TwdlN | SID104195605 | 76.7 | 77.6 | – | – |
| a5 | SID104180590 | 198 | 144 | – | – |
| Taf2 | SID104191090 | 102 | 97.9 | – | – |
| CG31482 | SID104192374 | 88.3 | 105 | – | – |
| CG4306 | SID104190201 | 93 | 140 | – | – |
| CG17199 | SID104194984 | 141 | 125 | – | – |
| CG14034 | SID104182151 | 64.4 (active) | 163 | – | – |
| frma | SID104198089 | 165 | 86.3 | – | – |
| RpL18 | SID104190808 | 92.3 | 41.2 | 81 | 72.8 |
| RpL18 | SID104201824 | 73.2 (active) | 129 | – | – |
| Nost | SID104197829 | 62.7 (active) | 310 | – | – |
| Nost | SID104198130 | 49.2 (active) | 250 | – | – |
| mthl1 | SID104199697 | 93.1 | 116 | – | – |
| Nepl20 | SID104194670 | 191 | 109 | – | – |
| CG9281 | SID104199971 | 107 | 121 | – | – |
| AP-1-2beta | SID104199128 | 57.7 (active) | 95.9 | – | – |
| lectin-21Ca | SID104180333 | 134 | 143 | – | – |
| spidey | SID104197724 | 116 | 116 | – | – |
| CngB | SID104184089 | 69.3 (active) | 128 | – | – |
| sro | SID104194261 | 123 | 113 | 6743 | 140 |
| Adk1 | SID104195306 | 105 | 74.6 | – | – |

Records listed above called active:
| gene | PubChem SID | calcium signal, replicate 1 | calcium signal, replicate 2 | retest calcium signal, replicate 1 | retest calcium signal, replicate 2 |
| --- | --- | --- | --- | --- | --- |
| CG42686 (retired record) | SID104195039 | 91.8 (active) | 75.4 | – | – |
| raskol | SID104199759 | 65.1 (active) | 70.4 | – | – |
| CG13367 | SID104198278 | 65.8 (active) | 95.4 | – | – |
| CG43347 | SID104198238 | 46.9 (active) | 82.6 | 123 | 4322 |
| CG15812 | SID104188271 | 46.9 (active) | 87.2 | – | – |
| Acsf2 | SID104181964 | 65.8 (active) | 172 | – | – |
| CG14034 | SID104182151 | 64.4 (active) | 163 | – | – |
| RpL18 | SID104201824 | 73.2 (active) | 129 | – | – |
| Nost | SID104197829 | 62.7 (active) | 310 | – | – |
| Nost | SID104198130 | 49.2 (active) | 250 | – | – |
| AP-1-2beta | SID104199128 | 57.7 (active) | 95.9 | – | – |
| CngB | SID104184089 | 69.3 (active) | 128 | – | – |
